Results reported in PubChem BioAssay AID504834 (National Center for Advancing Translational Sciences (NCATS), 2011).
Screen size: about 320,000 compounds; about 22,000 (6.9%) were called active. The shares of active, inactive and inconclusive entries below differ from those in the screen. Calls follow the shape of the dose curve; as a rule, active = well fitted inhibition curve with a large enough effect; inconclusive = small, poorly fitted or top-dose-only effect, or another doubt; inactive = no such curve, though single readings can be large or run the other way. Potencies beside an inconclusive call are fits to weak or partial responses and may not hold up.

test: Primary qHTS for delayed death inhibitors of the malarial parasite plastid, 96 hour incubation; conditions: P. falciparum luciferase reporter growth; series mostly up to 28.7 µM; activity change, negative = inhibition: at the top concentration
Method in brief: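 Readout is luminescence from an integrated firefly luciferase in P. falciparum. Red cells, 2% hematocrit and 0.05% parasitemia final, were cultured with compound through two parasite generations (96 hours) at 37 C, 5% CO2.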
% is scaled to controls: 0 for no effect and ±100 for the full control effect; potency is read from the fitted curve at half-maximal effect.

Structure (SMILES)	Potency	activity change, negative = inhibition
O=C(O)c1ccc(N/N=C/c2c[nH]c3ccccc23)cc1	inconclusive: 2.08 µM [inhibitor, full curve]	
Cc1ccccc1CSCC(=O)Nc1c(C)n(C)n(-c2ccccc2)c1=O		inactive: 96.6%
CCN(CC)S(=O)(=O)c1ccc(NC2c3ccccc3C(=O)N2CCN2CCOCC2)cc1 (stereo not drawn)	inconclusive: 0.0657 µM [inhibitor, full curve, poor fit]	
CCn1c(Cc2ccccc2)nnc1SCC(=O)Nc1ccc(OC)cc1	inconclusive: 18.5 µM [inhibitor, single point]	
CCCc1nc2ccc(NC(=O)NCCC(=O)OCC)cc2c(=O)n1Cc1ccc(Cl)cc1	inconclusive: 8.28 µM [inhibitor, partial curve, poor fit]	
CCOC(=O)N1CCN(C(=O)CN(c2ccc(C)c(C)c2)S(=O)(=O)c2ccccc2)CC1		inactive: 21.9%
Cc1ccc(S(=O)(=O)N2CCCCC2)cc1NC(=O)c1nn(C)c(=O)c2ccccc12	inconclusive: 9.28 µM [inhibitor, partial curve]	
COc1cc2c(cc1OC)-c1nc3ccccc3c(=O)n1C(C)(C)C2	inconclusive: 6.57 µM [inhibitor, partial curve, poor fit]	
Cc1ccc(Nc2nnc(SCC(=O)NC3CC3)s2)cc1	inconclusive: 10.4 µM [inhibitor, partial curve, poor fit]	
CCOc1ccc(N2C=Nc3ccc(OCC)cc3C2)cc1	inconclusive: 18.5 µM [inhibitor, single point]	
CCCN1CCC(=NNc2ccc(S(=O)(=O)N(CC)CC)cc2[N+](=O)[O-])CC1	inconclusive: 10.4 µM [inhibitor, single point]	
COc1ccc(/C=C2\CCCC3C2=NN(C(=O)CSc2ncn[nH]2)C3c2ccc(OC)cc2)cc1 (stereo not drawn)	inconclusive: 10.4 µM [inhibitor, partial curve, poor fit]	
Oc1ccc(C2=Nn3c(nnc3-c3ccco3)SC2)cc1O	inconclusive: 18.5 µM [inhibitor, single point]	
CC12CCCCC1c1ccccc1C(=NCC(=O)O)N2 (stereo not drawn)	inconclusive: 10.4 µM [inhibitor, single point]	
C[C@]12C[C@H](O)[C@@H]3c4ccc(O)cc4CCC3[C@@H]1CCC2=O (stereo partly drawn)	inconclusive: 10.4 µM [inhibitor, partial curve, poor fit]	
Cc1ccc(-n2c3c(cc(C(=O)NCC(=O)c4ccccc4)c2=O)C(=O)CCC3)cc1	inconclusive: 11.7 µM [inhibitor, single point]	
Cc1cc(C)cc(C(=O)N2CCN=C2SCc2ccc([N+](=O)[O-])cc2)c1	inconclusive: 5.86 µM [inhibitor, partial curve]	
C=CCN1C(=S)CC(c2ccccc2)=Nc2ccccc21	inconclusive: 0.0033 µM [inhibitor, full curve, poor fit]	
N#CC1(c2ccccc2)CCCN1C(=O)c1ccc(Br)o1 (stereo not drawn)	inconclusive: 11.7 µM [inhibitor, single point]	
Cc1nc2sccn2c(=O)c1S(=O)(=O)Nc1cccc(Cl)c1C	inconclusive: 1.65 µM [inhibitor, full curve]	
Cc1ccc(C2C3=C(CCCC3=O)OC3=C2C(=O)CCC3)cc1		inactive: 36.5%
Cc1nc2c(cc(Oc3ccc(S(=O)(=O)N4CCOCC4)cn3)c3ccsc32)s1	inconclusive: 18.5 µM [inhibitor, single point]	
COc1cc(C(=O)Nc2ccc(N3CCOCC3)cc2)ccc1OCc1c(C)noc1C	inconclusive: 11.7 µM [inhibitor, partial curve]	

Already shown: 6 of the compounds above.
Structure (SMILES)	Potency	activity change, negative = inhibition
O=C(O)c1ccc(N/N=C/c2c[nH]c3ccccc23)cc1	inconclusive: 2.08 µM [inhibitor, full curve]	
Cc1ccccc1CSCC(=O)Nc1c(C)n(C)n(-c2ccccc2)c1=O		inactive: 96.6%
CCN(CC)S(=O)(=O)c1ccc(NC2c3ccccc3C(=O)N2CCN2CCOCC2)cc1 (stereo not drawn)	inconclusive: 0.0657 µM [inhibitor, full curve, poor fit]	
CCn1c(Cc2ccccc2)nnc1SCC(=O)Nc1ccc(OC)cc1	inconclusive: 18.5 µM [inhibitor, single point]	
CCCc1nc2ccc(NC(=O)NCCC(=O)OCC)cc2c(=O)n1Cc1ccc(Cl)cc1	inconclusive: 8.28 µM [inhibitor, partial curve, poor fit]	
CCOC(=O)N1CCN(C(=O)CN(c2ccc(C)c(C)c2)S(=O)(=O)c2ccccc2)CC1		inactive: 21.9%

Continued.

Structure (SMILES)	Potency	activity change, negative = inhibition
CCCc1cc(=O)n2nc(N3CCC(C(=O)Nc4c(F)c(F)c(F)c(F)c4F)CC3)sc2n1	inconclusive: 18.5 µM [inhibitor, single point]	
CC(=O)c1ccc(N2CCN(S(=O)(=O)c3ccc(-c4cnc(C5CC5)o4)cc3)CC2)cc1	inconclusive: 13.1 µM [inhibitor, single point]	
CSc1ccccc1C(=O)N1CCc2ccccc2C1		inactive: 32.4%
COc1cc2c(cc1OC)-c1c(OC)c(OC)c(OC)c3ccnc(c13)C2=O	inconclusive: 13.1 µM [inhibitor, single point]	
CCOC(=O)CCCCCN1C(=O)c2cccc3cccc(c23)C1=O	active: 6.57 µM	
CN(C)c1ccc(N=Nc2ccccc2C(=O)OCC(=O)Nc2ccccc2C(F)(F)F)cc1	active: 9.28 µM	
CC(C)c1ccc(CCNC(=O)CCNC(=O)c2ccc(Br)cc2)cc1		inactive: 9.35%
CCOc1ccc(N(CC(=O)Nc2ccc(C)c(F)c2)C2=NC3CS(=O)(=O)CC3S2)cc1 (stereo not drawn)	inconclusive: 0.0026 µM [inhibitor, full curve, poor fit]	
Cc1ccc(C)n1-c1sc2c(c1C#N)CCCC2	inconclusive: 11.7 µM [inhibitor, single point]	
Cc1ccc(C)n1-c1ccc(-n2cnnn2)cc1	inconclusive: 11.7 µM [inhibitor, single point]	
CCOc1ccc(C(=O)NCC2CCCN2S(=O)(=O)c2cccs2)cc1 (stereo not drawn)	inconclusive: 10.4 µM [inhibitor, single point]	
CN(C(=O)COC(=O)C1CCN(S(=O)(=O)c2c(Cl)cccc2Cl)CC1)C1CCCCC1	inconclusive: 18.5 µM [inhibitor, single point]	
CC(C)CNC(=O)c1ccccc1NC(=O)Nc1ccccc1	active: 10.4 µM	
CCOC(=O)Cc1nnc(-c2ccccc2)o1	inconclusive: 1.65 µM [inhibitor, partial curve, poor fit]	
Cc1[nH]c(C)c(S(=O)(=O)N(Cc2ccccc2)C(C)(C)C)c1C(=O)N1CCCC1	inconclusive: 18.5 µM [inhibitor, single point]	
COc1ccc(C(C)C)cc1S(=O)(=O)N1CCN(C)CC1	active: 11.7 µM	
O=C1Nc2cc(C(=O)NCC3CCCO3)ccc2S/C1=C/c1ccccc1F (stereo not drawn)	inconclusive: 16.5 µM [inhibitor, partial curve, poor fit]	
CC1CCCCC12NC(=O)N(CC(=O)N1CCN(c3ncccn3)CC1)C2=O (stereo not drawn)		inactive: 41.5%
C/C(=N\NC(=O)c1ccccc1)c1ccc(NC(=O)c2cccs2)cc1		inactive: 98.8%
O=C(NCc1ccc(F)cc1)c1ccc2c(=O)n3c(nc2c1)CCCCC3		inactive: -12.5%
CCc1cc(=O)oc2cc(OC(C)C(=O)NCC3CCC(C(=O)O)CC3)c(Cl)cc12 (stereo not drawn)	inconclusive: 18.5 µM [inhibitor, single point]	
CN(c1cc(=O)n2ccccc2n1)C1CCCCC1	inconclusive: 0.415 µM [inhibitor, full curve, poor fit]	
Oc1ccc(C(=C(Cl)Cl)c2ccc(O)cc2)cc1	active: 2.33 µM	

Structure (SMILES)	Potency	activity change, negative = inhibition
COc1nnc(-c2ccc(N3CCOCC3)c(NC(=O)c3ccccc3)c2)c2ccccc12	inconclusive: 16.5 µM [inhibitor, single point]	
O=C(/C=C/c1ccco1)NC1CCCC1	inconclusive: 2.94 µM [inhibitor, single point]	
O=C1NCCN(Cc2ccc(Cl)c(F)c2)C1CC(=O)N1CCCO1 (stereo not drawn)	inconclusive: 18.5 µM [inhibitor, single point]	
COC(=O)c1ccc(OCC(O)CN2CCc3cc(OC)c(OC)cc3C2c2ccccc2)cc1 (stereo not drawn)	active: 10.4 µM	
COc1ccc(C(=O)Nc2ccc3nc(C)c(C)nc3c2)cc1		inactive: 0.755%
O=c1[nH]c(CCl)nc2cc(-c3ccc(F)cc3)sc12	inconclusive: 16.5 µM [inhibitor, single point]	
Cc1n[nH]c(=O)nc1N/N=C/c1ccco1		inactive: -15.8%
Fc1ccc(/C=N/NC(=S)Nc2cccnc2)cc1		inactive: -26.3%
CN(C(=O)COC(=O)c1ccccc1SCC(=O)N1CCCC1)c1ccccc1	inconclusive: 18.5 µM [inhibitor, partial curve, poor fit]	
CCN1C(=O)/C(=C/c2cccs2)N(C)C1=S	active: 1.65 µM	
Cc1nc(CNC(=O)CC2C(=O)NCCN2Cc2ccc(F)cc2)cs1 (stereo not drawn)		inactive: -25.9%
CC1C(=O)NN=C1C(=O)N/N=C\c1ccc(O)cc1O (stereo not drawn)		inactive: 23.6%
CSc1ccccc1OCc1cc(C(=O)NCCCc2ccccc2)no1	inconclusive: 18.5 µM [inhibitor, single point]	
COc1ccc2oc(C(=O)N(CC(C)C)C3CCS(=O)(=O)C3)c(C)c2c1 (stereo not drawn)	inconclusive: 13.1 µM [inhibitor, single point]	
CCOC(=O)C1CCN(C(=O)c2ccc(OCC)c(OCC)c2)CC1	active: 14.7 µM	
Cc1ccc(C(=O)O)cc1NC(=O)Nc1cccc2ccccc12	active: 2.62 µM	
Cc1ccc(-n2nnnc2SCC(=O)Nc2ccc3c(c2)OCCO3)cc1C	inconclusive: 7.38 µM [inhibitor, partial curve, poor fit]	
CCc1nc2ccccc2c(C(=O)OCC(=O)NCc2ccc3c(c2)OCO3)c1C	inconclusive: 18.5 µM [inhibitor, partial curve, poor fit]	
Cc1ccccc1NC(=S)N1CCN(Cc2ccccc2)CC1	active: 1.17 µM	
Cc1ccc(OCc2nnc(SCC(=O)C(C)(C)C)n2Cc2ccco2)cc1	inconclusive: 0.117 µM [inhibitor, full curve, poor fit]	
CC(C)Cc1nc(N2CCN(C(=O)Cc3ccccc3)CC2)c(C#N)c2c1COC(C)(C)C2		inactive: 1.96% [at 5.75 µM]
Cc1ccc(NP(=O)(Nc2ccc(C)cc2)Nc2ccc(C)cc2)cc1	inconclusive: 3.7 µM [inhibitor, partial curve, poor fit]	
